Measurements taken from the M2OR odorant receptor database.
This is a selection; strong and weak results do not stand in their true shares. The calls were merged from several studies; some rest on single wells. The list shows a part of the results.

Chains of the proteins cited; added tags and fusions are not shown. A change or cut given only in a name is not applied to a line headed by its entry. Chains listed by the source or under a name are the forms on record and can include a tag or linker.
UniProt Q8NH37: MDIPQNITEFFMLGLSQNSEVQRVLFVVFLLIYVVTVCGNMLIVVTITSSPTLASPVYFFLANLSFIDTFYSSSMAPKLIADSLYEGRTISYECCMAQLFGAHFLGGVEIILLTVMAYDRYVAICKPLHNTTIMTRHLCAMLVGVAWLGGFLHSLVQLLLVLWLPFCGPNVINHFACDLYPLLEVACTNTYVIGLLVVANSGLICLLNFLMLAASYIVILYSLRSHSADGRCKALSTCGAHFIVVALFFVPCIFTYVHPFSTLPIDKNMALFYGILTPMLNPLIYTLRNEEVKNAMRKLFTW
UniProt Q8NH72: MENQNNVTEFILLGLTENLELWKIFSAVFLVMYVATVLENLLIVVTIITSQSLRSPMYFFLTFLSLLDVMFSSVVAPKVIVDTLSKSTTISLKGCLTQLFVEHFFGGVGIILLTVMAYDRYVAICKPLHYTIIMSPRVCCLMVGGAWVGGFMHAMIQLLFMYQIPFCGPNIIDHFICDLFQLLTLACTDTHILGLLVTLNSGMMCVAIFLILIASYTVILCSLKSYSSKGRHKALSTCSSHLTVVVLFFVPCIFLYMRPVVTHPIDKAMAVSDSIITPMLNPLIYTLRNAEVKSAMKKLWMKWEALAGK
UniProt Q8NGI6: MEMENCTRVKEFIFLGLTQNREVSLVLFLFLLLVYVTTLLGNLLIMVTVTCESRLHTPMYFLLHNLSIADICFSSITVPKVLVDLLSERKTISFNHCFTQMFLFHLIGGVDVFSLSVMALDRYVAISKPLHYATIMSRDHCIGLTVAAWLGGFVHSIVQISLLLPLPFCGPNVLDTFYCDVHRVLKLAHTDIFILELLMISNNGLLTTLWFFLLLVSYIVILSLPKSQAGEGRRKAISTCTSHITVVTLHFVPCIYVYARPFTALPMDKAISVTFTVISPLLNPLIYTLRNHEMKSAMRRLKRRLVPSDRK
OR4C3, as listed by the source: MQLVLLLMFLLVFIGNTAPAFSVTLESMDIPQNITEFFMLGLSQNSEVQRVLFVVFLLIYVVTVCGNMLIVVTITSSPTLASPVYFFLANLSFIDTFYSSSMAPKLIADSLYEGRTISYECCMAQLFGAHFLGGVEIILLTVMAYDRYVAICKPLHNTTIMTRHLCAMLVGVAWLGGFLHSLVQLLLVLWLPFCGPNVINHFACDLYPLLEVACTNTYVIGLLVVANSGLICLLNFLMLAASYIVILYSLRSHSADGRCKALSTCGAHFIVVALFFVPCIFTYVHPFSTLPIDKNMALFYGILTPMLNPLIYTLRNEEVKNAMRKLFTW
OR4CF, as listed by the source: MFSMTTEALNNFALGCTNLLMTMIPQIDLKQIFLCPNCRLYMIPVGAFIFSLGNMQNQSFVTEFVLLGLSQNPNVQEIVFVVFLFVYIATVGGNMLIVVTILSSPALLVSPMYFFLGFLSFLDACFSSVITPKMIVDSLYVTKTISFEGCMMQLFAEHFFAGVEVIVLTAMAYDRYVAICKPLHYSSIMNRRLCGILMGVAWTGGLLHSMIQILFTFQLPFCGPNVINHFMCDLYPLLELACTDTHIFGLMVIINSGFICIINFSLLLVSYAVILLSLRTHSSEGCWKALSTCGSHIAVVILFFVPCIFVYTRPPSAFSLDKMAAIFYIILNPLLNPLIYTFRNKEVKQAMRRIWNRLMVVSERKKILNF
OR4C5, as listed by the source: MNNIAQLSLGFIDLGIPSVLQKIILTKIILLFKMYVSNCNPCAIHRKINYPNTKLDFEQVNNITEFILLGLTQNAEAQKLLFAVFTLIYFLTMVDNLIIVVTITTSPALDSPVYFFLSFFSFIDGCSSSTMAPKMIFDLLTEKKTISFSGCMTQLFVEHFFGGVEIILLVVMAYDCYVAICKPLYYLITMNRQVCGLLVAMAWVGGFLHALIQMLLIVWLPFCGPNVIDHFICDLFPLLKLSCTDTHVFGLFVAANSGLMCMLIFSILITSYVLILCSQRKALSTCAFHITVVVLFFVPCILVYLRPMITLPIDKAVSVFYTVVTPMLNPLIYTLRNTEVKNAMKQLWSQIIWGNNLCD
OR4CC, as listed by the source: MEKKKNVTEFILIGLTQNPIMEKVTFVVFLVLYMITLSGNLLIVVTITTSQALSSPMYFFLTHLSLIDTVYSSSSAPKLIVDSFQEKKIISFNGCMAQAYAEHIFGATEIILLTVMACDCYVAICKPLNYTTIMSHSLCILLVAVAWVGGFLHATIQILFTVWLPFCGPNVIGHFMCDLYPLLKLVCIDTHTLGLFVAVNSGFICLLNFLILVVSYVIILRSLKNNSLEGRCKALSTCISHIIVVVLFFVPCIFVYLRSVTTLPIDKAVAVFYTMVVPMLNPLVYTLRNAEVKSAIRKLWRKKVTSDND

Experiments:
Conditions in all cases: stereoisomer not certain
OR4B1 (Homo sapiens) = biological target: T1, OR4B1 (Homo sapiens) (UniProt Q8NGF8)
T1 sequence (whole entry): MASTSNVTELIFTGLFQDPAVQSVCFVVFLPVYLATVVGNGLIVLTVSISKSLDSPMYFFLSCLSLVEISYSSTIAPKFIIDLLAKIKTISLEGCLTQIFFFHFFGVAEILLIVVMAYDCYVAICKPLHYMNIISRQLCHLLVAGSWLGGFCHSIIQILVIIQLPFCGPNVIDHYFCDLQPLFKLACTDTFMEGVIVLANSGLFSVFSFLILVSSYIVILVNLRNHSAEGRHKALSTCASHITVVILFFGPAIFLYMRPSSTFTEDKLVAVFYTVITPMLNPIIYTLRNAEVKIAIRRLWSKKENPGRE
Outline: (§1)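 Values were gathered from published papers (main text and supplementary material), with extra details requested from the original authors when needed, and checked for typos and inconsistencies. Each receptor–molecule pair is called responsive (active) if the original authors judged the measured signal statistically different from baseline, and non-responsive (inactive) otherwise. Assay methods varied by source, often transient mammalian cell-line luciferase assays. Recorded details include cell line, G-protein, co-transfected protein and tags.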

OR4C11 (Homo sapiens) = biological target: T2, OR4C11 (Homo sapiens) (UniProt Q6IEV9)
T2 sequence (whole entry): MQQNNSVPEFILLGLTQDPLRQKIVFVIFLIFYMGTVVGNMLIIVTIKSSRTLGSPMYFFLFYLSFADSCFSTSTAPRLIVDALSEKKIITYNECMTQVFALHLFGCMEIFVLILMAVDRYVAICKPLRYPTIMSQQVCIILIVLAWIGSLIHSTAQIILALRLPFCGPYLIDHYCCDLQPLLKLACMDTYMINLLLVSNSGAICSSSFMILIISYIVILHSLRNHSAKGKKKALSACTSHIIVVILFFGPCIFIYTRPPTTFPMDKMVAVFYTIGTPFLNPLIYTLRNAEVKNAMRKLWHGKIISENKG
Outline: as §1

OR4C3 (Homo sapiens) = OR4C3 (Homo sapiens) (UniProt Q8NH37)
Outline: as §1

OR4C3 = test system: OR4C3
Outline: as §1

OR4C5 = test system: OR4C5
Outline: as §1

OR4C6 (Homo sapiens) = OR4C6 (Homo sapiens) (UniProt Q8NH72)
Outline: as §1

OR4CC = test system: OR4CC
Outline: as §1

OR4CF = test system: OR4CF
Outline: as §1

OR4CG = test system: T3, OR4CG
T3 sequence (whole entry): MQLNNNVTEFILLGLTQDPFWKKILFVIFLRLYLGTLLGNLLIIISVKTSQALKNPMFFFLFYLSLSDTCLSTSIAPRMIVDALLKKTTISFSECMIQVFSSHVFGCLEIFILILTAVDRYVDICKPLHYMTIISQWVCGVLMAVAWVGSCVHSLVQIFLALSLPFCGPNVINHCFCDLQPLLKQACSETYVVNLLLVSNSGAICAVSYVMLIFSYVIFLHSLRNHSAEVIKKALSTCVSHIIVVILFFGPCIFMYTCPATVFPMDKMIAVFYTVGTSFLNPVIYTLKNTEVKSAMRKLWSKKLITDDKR
Outline: as §1

OR4D10 (Homo sapiens) = OR4D10 (Homo sapiens) (UniProt Q8NGI6)
Outline: as §1

Measured: odorant receptor agonist call

CS
inactive: all assays above

CCCCOC(C)=O
inactive: all assays above

CCC(C)=O
inactive: all assays above
